Laboratory results: PubChem BioAssay AID1259425 (University of Nebraska Medical Center, 2018)
Test: 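Find knockdowns that reproduce the gene expression pattern seen when KSR1 is lost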 (primary screen). Cells: HCT116 human colon cancer cells. Reagents: siRNA pool against human genes, 50 nM siRNA. Detection: 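After 50 nM siRNA pool, branched-DNA assay measures six marker transcripts per well, minus blank, normalised to the geometric mean of two housekeeping transcripts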. Direction: BNIP3L mRNA: higher = more BNIP3L transcript after knockdown; NDRG1 mRNA: higher = more NDRG1 transcript after knockdown; BNIP3 mRNA: higher = more BNIP3 transcript after knockdown; ALDOC mRNA: higher = more ALDOC transcript after knockdown; ACSL5 mRNA: higher = more ACSL5 transcript after knockdown.
Shown is a random part of about 14,000 reagents tested. The record does not give: the time to read-out.

no.	gene knocked down	BNIP3L mRNA, set 1	NDRG1 mRNA, set 1	BNIP3 mRNA, set 1	ALDOC mRNA, set 1	ACSL5 mRNA, set 1
1	ADGRG3 (GeneID 222487)	0.243	0.334	0.486	0.055	0.247
2	TCN1 (GeneID 6947)	0.077	0.187	0.285	0.0098	0.142
3	KIR2DS4 (GeneID 3809)	0.0659	0.175	0.355	0.012	0.188
4	ARL6IP4 (GeneID 51329)	0.114	0.0871	0.303	0.028	0.0941
5	BLTP1 (GeneID 84162)	0.144	0.35	0.222	0.0567	0.456
6	SPAG11B (GeneID 10407)	0.137	0.241	0.211	0.0472	0.0936
7	CCHCR1 (GeneID 54535)	0.133	0.764	0.327	0.0266	0.108
8	ZNF382 (GeneID 84911)	0.169	0.195	0.316	0.0506	0.255
9	CNOT9 (GeneID 9125)	0.232	0.695	0.313	0.0125	0.116
10	CHRNB3 (GeneID 1142)	0.0517	0.102	0.245	0.0195	0.0853
11	PDE4DIP (GeneID 9659)	0.135	0.209	0.327	0.0288	0.297
12	NXF1 (GeneID 10482)	0.303	0.309	0.385	0.118	0.3

Reformatted: 2 of the entries above.
TCN1 (GeneID 6947)
- BNIP3L mRNA, set 1: 0.077
- NDRG1 mRNA, set 1: 0.187
- BNIP3 mRNA, set 1: 0.285
- ALDOC mRNA, set 1: 0.0098
- ACSL5 mRNA, set 1: 0.142

KIR2DS4 (GeneID 3809)
- BNIP3L mRNA, set 1: 0.0659
- NDRG1 mRNA, set 1: 0.175
- BNIP3 mRNA, set 1: 0.355
- ALDOC mRNA, set 1: 0.012
- ACSL5 mRNA, set 1: 0.188

Further entries follow.
no.	gene knocked down	BNIP3L mRNA, set 1	NDRG1 mRNA, set 1	BNIP3 mRNA, set 1	ALDOC mRNA, set 1	ACSL5 mRNA, set 1
13	CCT6A (GeneID 908)	0.0835	0.154	0.333	0.0105	0.198
14	MRPL47 (GeneID 57129)	0.297	0.262	0.243	0.0319	0.306
15	SCT (GeneID 6343)	0.121	0.173	0.297	0.057	0.204
16	DCTN3 (GeneID 11258)	0.0545	0.151	0.236	0.00689	0.0912
17	CDH4 (GeneID 1002)	0.218	0.457	0.389	0.0113	0.246
18	PALLD (GeneID 23022)	0.0842	0.149	0.287	0.0177	0.289
19	CERS4 (GeneID 79603)	0.141	0.239	0.354	0.0358	0.149
20	PRSS21 (GeneID 10942)	0.145	0.354	0.293	0.0462	0.271
